Where two headings read alike, the source gives them in different places. No constants are given. Whether binding was seen depends on the method and setting. Binding seen in cells or lysates may run through a third protein. A yes stands for co-enrichment or nearness to the bait. Other partners may have been found.

By UniProt entry, the sequences of proteins in these tests, tags left out.
UniProt Q96A61: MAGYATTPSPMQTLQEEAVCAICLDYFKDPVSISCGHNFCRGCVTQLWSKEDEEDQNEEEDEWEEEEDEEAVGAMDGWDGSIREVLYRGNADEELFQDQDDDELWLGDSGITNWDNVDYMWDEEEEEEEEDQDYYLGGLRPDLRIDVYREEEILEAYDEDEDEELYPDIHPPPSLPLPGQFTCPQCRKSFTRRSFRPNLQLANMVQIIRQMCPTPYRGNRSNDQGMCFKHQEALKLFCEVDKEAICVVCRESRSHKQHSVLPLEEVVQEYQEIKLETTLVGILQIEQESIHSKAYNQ
UniProt Q9NR09: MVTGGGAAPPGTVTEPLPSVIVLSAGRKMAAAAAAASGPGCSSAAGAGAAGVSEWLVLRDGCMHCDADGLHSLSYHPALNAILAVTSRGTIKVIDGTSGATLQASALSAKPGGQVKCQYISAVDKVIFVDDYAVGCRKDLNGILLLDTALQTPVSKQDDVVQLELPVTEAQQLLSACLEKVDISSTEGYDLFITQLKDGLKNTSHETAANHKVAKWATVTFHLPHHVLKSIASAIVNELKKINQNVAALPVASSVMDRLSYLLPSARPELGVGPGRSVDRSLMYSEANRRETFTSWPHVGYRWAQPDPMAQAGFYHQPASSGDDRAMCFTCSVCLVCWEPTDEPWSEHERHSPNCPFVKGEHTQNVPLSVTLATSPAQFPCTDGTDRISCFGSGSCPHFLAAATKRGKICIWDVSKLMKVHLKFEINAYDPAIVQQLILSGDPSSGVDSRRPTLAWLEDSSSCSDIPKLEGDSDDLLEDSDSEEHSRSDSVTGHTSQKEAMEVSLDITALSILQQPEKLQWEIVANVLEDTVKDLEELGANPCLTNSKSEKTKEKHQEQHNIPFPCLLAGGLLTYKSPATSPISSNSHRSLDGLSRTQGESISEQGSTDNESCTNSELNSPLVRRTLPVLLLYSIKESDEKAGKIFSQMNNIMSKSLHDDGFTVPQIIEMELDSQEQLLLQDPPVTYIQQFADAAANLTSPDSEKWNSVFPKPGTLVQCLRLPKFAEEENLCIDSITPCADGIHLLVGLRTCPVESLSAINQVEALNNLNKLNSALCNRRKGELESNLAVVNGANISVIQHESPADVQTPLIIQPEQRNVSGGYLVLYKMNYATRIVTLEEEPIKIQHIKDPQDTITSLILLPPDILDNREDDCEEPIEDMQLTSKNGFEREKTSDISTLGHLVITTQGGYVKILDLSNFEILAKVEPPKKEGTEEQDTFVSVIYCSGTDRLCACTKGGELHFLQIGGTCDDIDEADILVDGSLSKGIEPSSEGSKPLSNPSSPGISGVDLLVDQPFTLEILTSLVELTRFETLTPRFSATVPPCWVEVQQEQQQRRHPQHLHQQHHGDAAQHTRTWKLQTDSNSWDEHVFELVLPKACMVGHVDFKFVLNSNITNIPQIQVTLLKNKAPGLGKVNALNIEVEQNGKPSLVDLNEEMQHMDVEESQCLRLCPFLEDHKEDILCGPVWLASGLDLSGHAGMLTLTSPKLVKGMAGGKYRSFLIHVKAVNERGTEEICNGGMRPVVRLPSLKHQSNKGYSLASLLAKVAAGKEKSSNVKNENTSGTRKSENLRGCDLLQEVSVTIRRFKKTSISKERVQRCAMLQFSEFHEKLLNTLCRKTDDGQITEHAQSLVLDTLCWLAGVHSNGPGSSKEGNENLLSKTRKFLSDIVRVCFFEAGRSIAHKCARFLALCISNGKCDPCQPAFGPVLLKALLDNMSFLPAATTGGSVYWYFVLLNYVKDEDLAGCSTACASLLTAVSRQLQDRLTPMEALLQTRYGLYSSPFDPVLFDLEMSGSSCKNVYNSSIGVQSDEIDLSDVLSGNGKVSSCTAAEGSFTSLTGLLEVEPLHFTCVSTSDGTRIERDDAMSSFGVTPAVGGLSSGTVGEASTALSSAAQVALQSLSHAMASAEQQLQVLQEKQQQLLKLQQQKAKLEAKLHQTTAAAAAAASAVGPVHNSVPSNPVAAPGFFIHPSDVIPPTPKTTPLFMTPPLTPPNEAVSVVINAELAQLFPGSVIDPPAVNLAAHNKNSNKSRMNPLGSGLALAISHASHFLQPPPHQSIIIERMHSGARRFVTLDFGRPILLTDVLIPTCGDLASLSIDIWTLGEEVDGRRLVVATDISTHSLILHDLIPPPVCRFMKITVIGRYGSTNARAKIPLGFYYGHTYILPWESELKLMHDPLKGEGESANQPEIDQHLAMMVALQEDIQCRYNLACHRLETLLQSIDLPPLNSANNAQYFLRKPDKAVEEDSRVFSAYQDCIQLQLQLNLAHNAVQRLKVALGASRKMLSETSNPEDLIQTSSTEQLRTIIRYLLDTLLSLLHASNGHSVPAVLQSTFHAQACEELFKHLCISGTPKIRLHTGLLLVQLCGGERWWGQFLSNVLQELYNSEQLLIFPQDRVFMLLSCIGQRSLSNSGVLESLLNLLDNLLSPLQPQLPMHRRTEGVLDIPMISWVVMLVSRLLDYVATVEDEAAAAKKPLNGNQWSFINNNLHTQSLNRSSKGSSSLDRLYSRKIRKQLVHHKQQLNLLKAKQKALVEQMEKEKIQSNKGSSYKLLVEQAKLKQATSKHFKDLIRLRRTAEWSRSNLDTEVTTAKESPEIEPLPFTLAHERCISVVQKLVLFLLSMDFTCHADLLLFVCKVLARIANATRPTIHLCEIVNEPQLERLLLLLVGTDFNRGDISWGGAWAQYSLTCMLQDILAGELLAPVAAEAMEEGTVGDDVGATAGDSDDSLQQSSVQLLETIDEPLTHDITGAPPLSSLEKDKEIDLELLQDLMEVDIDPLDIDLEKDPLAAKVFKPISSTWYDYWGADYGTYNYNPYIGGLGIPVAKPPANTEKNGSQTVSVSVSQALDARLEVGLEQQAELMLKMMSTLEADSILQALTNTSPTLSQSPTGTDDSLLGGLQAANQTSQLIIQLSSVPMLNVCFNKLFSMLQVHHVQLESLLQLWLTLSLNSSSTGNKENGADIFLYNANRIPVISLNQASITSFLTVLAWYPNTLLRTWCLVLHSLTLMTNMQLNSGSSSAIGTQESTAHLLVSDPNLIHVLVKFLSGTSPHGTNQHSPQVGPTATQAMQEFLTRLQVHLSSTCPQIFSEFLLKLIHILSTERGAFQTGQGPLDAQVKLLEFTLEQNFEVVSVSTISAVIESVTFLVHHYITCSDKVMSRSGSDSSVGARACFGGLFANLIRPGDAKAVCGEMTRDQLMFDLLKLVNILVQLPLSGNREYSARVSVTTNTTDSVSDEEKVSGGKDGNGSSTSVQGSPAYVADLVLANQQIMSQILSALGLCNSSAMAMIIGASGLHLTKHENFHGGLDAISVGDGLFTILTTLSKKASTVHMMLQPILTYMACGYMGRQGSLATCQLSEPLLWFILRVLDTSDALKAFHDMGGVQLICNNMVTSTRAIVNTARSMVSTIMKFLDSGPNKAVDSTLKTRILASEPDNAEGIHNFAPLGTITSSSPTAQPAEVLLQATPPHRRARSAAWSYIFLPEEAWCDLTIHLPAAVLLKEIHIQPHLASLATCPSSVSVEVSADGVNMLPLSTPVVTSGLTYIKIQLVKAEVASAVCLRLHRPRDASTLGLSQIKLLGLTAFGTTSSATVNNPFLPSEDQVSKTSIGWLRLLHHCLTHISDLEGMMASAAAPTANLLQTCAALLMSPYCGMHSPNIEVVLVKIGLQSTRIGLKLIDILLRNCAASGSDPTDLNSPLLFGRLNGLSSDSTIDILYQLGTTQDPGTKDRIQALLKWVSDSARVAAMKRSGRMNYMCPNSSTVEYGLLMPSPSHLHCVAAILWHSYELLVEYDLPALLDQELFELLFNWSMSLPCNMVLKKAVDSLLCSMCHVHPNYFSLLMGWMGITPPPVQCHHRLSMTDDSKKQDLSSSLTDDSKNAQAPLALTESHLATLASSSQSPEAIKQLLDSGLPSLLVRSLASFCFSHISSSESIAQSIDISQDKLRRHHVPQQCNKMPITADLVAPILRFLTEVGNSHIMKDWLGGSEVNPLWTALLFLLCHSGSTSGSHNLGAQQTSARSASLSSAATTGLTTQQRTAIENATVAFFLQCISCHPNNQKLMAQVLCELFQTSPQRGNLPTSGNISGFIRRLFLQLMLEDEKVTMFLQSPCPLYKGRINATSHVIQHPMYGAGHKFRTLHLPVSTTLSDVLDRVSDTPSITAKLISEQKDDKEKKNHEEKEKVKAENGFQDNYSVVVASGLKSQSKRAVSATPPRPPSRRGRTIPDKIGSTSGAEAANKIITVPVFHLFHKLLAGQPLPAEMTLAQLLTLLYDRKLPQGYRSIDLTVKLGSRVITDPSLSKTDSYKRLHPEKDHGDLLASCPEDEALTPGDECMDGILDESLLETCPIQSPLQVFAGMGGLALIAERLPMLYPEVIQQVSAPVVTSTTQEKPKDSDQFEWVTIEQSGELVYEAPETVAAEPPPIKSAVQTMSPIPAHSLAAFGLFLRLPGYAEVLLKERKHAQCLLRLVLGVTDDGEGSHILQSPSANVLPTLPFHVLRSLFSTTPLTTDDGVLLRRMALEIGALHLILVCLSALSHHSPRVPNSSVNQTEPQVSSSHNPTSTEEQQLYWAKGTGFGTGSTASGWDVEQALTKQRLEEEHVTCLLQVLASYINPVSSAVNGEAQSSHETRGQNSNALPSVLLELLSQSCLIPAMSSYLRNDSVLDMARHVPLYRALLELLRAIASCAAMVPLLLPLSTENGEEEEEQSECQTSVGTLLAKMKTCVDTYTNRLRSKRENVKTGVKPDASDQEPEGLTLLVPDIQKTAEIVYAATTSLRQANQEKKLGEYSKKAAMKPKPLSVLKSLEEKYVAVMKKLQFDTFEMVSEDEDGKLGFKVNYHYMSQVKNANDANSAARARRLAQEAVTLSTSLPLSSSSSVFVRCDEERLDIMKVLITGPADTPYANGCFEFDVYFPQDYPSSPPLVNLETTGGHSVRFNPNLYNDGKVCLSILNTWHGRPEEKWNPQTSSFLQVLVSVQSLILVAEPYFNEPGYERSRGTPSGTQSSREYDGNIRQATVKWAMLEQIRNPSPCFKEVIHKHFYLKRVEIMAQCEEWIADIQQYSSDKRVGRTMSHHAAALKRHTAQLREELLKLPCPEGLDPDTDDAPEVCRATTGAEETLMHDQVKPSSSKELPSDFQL

In experiment [1] the target is TurboID-TRIM52 fusion (human) (UniProt Q96A61). The experiment is described as follows: proximity labelling.
Experiment [2] shares this target. As to the kind of experiment: proximity labelling. This is another data set of the same source.

For “HUWE1 (endogenous) (from UniProt Q7Z6Z7 1-4374) (enzyme)”, in experiment [1], the binding result is “binds”.
Same read-out and setting: with “BIRC6 (endogenous) (from UniProt Q9NR09 1-4857) (enzyme)” the entry was “binds”.

B1: Tyrosyl-DNA Phosphodiesterase 2 (TDP2) (enzyme, UniProt O95551 1-362)
chain: MELGSCLEGGREAAEEEGEPEVKKRRLLCVEFASVASCDAAVAQCFLAENDWEMERALNSYFEPPVEESALERRPETISEPKTYVDLTNEETTDSTTSKISPSEDTQQENGSMFSLITWNIDGLDLNNLSERARGVCSYLALYSPDVIFLQEVIPPYYSYLKKRSSNYEIITGHEEGYFTAIMLKKSRVKLKSQEIIPFPSTKMMRNLLCVHVNVSGNELCLMTSHLESTRGHAAERMNQLKMVLKKMQEAPESATVIFAGDTNLRDREVTRCGGLPNNIVDVWEFLGKPKHCQYTWDTQMNSNLGITAACKLRFDRIFFRAAAEEGHIIPRSLDLLGLEKLDCGRFPSDHWGLLCNLDIIL
For B1, in experiment [2], the binding result is given as “binds”.

B2: Zinc Finger Protein 451 (ZNF451) (enzyme, UniProt Q9Y4E5 1-1061)
chain: MGDPGSEIIESVPPAGPEASESTTDENEDDIQFVSEGPLRPVLEYIDLVSSDDEEPSTSYTDENIKRKDHIDYQKDKVALTLARLARHVEVEKQQKEEKNRAFREKIDFQHAHGLQELEFIRGHSDTEAARLCVDQWLKMPGLKTGTINCGTKSSFRRGGHTWVSGKPILCPIMHCNKEFDNGHLLLGHLKRFDHSPCDPTITLHGPFFSSFACVVCYKKFVTQQQYRDHLFDKEATDDGHNNNLLPQIIQCFACPNCFLLFSRKEECSKHMSGKNHFHQSFKLGDNKGIAHPISFPSFAKKLLISLCKDVPFQVKCVACHKTLRSHMELTAHFRVHCRNAGPVAVAEKSITQVAEKFILRGYCPDCNQVFVDETSTQNHKQNSGHKVRVINSVEESVLLYCHSSEGNKDPSSDLHLLLDQSKFSSLKRTMSIKESSSLECIAIPKKKMNLKDKSHEGVACVQKEKSVVKTWFCECNQRFPSEDAVEKHVFSANTMGYKCVVCGKVCDDSGVIRLHMSRIHGGAHLNNFLFWCRTCKKELTRKDTIMAHVTEFHNGHRYFYEMDEVEGETLPSSSTTLDNLTANKPSSAITVIDHSPANSSPRGKWQCRICEDMFDSQEYVKQHCMSLASHKFHRYSCAHCRKPFHKIETLYRHCQDEHDNEIKIKYFCGLCDLIFNVEEAFLSHYEEHHSIDYVFVSEKTETSIKTEDDFPVIETSNQLTCGCRESYICKVNRKEDYSRCLQIMLDKGKLWFRCSLCSATAQNLTDMNTHIHQVHKEKSDEEEQQYVIKCGTCTKAFHDPESAQQHFHRKHCFLQKPSVAHFGSEKSNLYKFTASASHTERKLKQAINYSKSLDMEKGVENDLSYQNIEEEIVELPDLDYLRTMTHIVFVDFDNWSNFFGHLPGHLNQGTFIWGFQGGNTNWKPPLNCKIYNYLNRIGCFFLHPRCSKRKDAADFAICMHAGRLDEQLPKQIPFTILSGDQGFLELENQFKKTQRPAHILNPHHLEGDMMCALLNSISDTTKECDSDDNMGAKNTSIGEEFISTEDVELEEAIRRSLEEM
For the molecule B2, the binding entry in experiment [2] is given as “binds”.

The values are drawn from paper doi:10.1101/2024.05.16.594269.
